Data: patent publication US10759781B2, “Substituted guanidine derivatives” (UBE INDUSTRIES, LTD., priority 2015, dated 2020)
Some entries share one result that the patent states for a list of compounds.

Target: T1, Human VAP-1 enzyme (Homo sapiens, UniProt Q16853)
T1 construct: purchased R&D Systems, Inc
T1 sequence (Q16853 1-763): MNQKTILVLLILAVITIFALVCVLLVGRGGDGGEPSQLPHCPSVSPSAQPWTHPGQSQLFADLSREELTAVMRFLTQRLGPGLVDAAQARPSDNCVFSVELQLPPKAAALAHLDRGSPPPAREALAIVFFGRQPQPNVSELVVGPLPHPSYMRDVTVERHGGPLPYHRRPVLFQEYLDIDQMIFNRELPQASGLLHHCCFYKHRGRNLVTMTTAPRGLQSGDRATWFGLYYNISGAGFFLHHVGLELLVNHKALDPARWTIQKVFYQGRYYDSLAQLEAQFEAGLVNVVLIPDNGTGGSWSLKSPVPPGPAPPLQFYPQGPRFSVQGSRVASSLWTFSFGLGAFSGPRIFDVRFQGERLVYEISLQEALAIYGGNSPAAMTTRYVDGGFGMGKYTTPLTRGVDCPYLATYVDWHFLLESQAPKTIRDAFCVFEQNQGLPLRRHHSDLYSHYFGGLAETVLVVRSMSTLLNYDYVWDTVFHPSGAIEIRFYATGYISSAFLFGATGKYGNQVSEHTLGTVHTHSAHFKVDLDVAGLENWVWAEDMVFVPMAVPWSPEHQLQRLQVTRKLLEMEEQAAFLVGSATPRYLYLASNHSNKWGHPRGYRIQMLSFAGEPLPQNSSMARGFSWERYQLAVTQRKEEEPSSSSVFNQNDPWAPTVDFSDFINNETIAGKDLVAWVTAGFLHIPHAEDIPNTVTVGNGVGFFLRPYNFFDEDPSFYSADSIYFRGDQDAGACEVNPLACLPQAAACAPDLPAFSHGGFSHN
Assay: Human VAP-1 enzyme inhibition test
Assay type: biochemical
Conditions: compound 30 nM; 14C-benzylamine 100 μM
Method: Human VAP-1 enzyme inhibition test
This test was conducted by modifying the method of P. H. Yu et al. (Diabetologia 40 1243 (1997)). Human VAP-1 enzyme (R&D Systems, Inc.) was pre-incubated in a 96-well plate with the compound dissolved in dimethylsulfoxide at room temperature for 20 minutes. Next, in a solution to the final volume of 200 μL, the enzyme reaction solution was incubated with ^14C-benzylamine (final concentration 100 μM) at 37° C. for 1 hour. The reaction was terminated by the addition of 100 μL of 2 M citric acid solution to the reaction solution. The oxidative product was extracted using a toluene/ethyl acetate mixture and the radioactivity was measured with a liquid scintillation counter. The inhibition ratio of the compound was calculated using the following equation. Inhibition ratio={1−[VAP-1 enzyme activity after treatment with the compound]/[VAP-1 enzyme activity in the presence of dimethylsulfoxide alone without the compound]}×100

CN(C)C(=O)ON=C1CN(c2ncc(-c3cccc(COC(=O)NC(=N)N)c3F)cn2)C1 [Example 110, 3-[2-(3-{[(Dimethylcarbamoyl)oxy]imino}azetidin-1-yl)pyrimidin-5-yl]-2-fluorobenzyl carbamimidoylcarbamate]
inhibition ratio (human VAP-1 enzyme): ≥ 50%
